PMC7217962
No constants are given. Whether binding was seen depends on the method and setting. Binding seen in cells or lysates may run through a third protein. Some binding calls cover weakened binding; strength is not graded here.

By UniProt entry, the sequences of proteins in these tests, tags left out. Where a name states a change or a piece, a line headed by the entry shows the natural chain unless it says otherwise. Chains listed by the source or under a name are the forms on record and can include a tag or linker.
CD44 standard form (CD44s), overexpressed as two differently tagged copies, CD44-FLAG and CD44-YFP (P16070-12, form named): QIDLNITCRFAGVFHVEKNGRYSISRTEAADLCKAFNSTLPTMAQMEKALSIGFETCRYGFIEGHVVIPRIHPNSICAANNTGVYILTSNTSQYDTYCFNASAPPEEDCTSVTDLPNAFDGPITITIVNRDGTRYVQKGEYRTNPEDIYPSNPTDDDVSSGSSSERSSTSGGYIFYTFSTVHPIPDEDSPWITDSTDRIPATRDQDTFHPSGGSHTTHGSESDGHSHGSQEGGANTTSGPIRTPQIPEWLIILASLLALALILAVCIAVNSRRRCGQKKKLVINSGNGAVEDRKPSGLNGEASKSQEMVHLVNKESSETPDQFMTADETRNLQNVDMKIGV

Molecular target: CD44 standard form (CD44s), overexpressed as two differently tagged copies, CD44-FLAG and CD44-YFP (UniProt P16070)
Test: co-IP; IMR90 cells overexpressing CD44-FLAG and CD44-YFP, incubated 6 h with 20 ug/ml cNSF-HA, fNSF-HA or PBS; cells cross-linked with 500 uM DSP and 500 uM DTME before harvest; RIPA lysis, buffer exchanged to 0.05% TBST; anti-FLAG (M2) cross-linked to Protein G Dynabeads; CD44-YFP detected by anti-GFP Western blot (n = 9)

CD44 standard form (CD44s), overexpressed as two differently tagged copies, CD44-FLAG and CD44-YFP (from UniProt P16070-12 21-361) (receptor)
binding: binds
